# These are yes or no findings as the source states them, for the method shown. Binding seen in cells or lysates may run through a third protein. Tags and fused reporters may be left off the sequences shown.
# Biological target: T1, Punctin-GFP (Punctin/MADD-4 tagged at the C-terminus with GFP, knock-in) (C. elegans) (UniProt P90884)
# T1 sequence: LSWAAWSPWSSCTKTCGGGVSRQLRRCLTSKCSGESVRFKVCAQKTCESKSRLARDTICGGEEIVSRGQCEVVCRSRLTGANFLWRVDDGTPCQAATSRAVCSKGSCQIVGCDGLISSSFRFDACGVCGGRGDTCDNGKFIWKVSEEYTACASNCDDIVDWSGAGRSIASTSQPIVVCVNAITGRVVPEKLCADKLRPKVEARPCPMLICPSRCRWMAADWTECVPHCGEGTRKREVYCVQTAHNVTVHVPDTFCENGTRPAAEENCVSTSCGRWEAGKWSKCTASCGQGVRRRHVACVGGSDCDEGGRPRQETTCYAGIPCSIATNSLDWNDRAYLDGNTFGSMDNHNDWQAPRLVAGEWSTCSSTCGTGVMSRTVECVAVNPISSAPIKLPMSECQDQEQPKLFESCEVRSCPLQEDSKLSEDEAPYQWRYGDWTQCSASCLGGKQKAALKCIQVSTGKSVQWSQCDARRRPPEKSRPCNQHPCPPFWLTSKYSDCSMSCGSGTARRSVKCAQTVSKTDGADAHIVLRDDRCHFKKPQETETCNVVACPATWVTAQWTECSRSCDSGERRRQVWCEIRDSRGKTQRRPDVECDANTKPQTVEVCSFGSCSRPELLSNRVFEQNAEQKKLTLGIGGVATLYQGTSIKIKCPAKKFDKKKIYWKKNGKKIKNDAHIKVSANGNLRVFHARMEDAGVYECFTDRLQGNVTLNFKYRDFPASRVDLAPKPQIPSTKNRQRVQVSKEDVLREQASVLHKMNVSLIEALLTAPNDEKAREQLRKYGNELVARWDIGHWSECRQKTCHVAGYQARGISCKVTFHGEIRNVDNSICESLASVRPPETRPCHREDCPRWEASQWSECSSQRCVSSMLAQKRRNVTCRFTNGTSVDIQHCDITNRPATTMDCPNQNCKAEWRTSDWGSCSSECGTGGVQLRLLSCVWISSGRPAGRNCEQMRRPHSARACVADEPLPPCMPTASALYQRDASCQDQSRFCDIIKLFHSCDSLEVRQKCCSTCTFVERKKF
# Assay: co-IP
substance,measurement,value
"CLE-1C-wSC (short isoform of CLE-1 tagged at the C-terminus with wormScarlet, knock-in) (C. elegans)",binding,no binding
